Experimental data taken from PMC11722552.
No constants are given. Whether binding was seen depends on the method and setting. In cells and extracts the contact can be indirect. Some results given as binding are weak or reduced against the parent protein; the word gives no strength. For some of these results: Where a sequence is shown, tags or fusion partners need not be part of it.

Sequences of proteins named here, by UniProt entry; tags and fusion partners are left off.
UniProt O75381: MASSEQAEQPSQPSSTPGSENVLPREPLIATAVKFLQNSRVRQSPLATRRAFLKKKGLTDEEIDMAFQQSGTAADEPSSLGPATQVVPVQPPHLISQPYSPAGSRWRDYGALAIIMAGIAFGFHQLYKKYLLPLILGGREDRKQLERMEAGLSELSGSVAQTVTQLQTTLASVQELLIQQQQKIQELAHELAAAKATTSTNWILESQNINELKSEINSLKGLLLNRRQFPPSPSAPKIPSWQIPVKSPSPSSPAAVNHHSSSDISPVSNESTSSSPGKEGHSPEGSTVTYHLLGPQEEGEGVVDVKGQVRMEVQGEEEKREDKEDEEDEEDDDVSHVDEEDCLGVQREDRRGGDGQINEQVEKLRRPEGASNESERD
UniProt Q9R0A0: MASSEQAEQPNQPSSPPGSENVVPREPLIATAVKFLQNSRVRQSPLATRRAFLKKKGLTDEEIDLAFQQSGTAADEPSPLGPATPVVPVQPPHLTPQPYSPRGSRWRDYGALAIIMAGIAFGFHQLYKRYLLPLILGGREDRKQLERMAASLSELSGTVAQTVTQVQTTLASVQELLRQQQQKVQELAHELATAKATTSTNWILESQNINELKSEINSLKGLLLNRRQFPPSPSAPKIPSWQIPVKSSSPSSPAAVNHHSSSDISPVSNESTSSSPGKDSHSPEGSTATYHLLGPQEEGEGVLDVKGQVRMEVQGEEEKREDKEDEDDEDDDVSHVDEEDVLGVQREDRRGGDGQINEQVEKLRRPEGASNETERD

T1: Mitofusin 2 (MFN2) (human (endogenous in fibroblasts)) (UniProt O95140)
T1 sequence: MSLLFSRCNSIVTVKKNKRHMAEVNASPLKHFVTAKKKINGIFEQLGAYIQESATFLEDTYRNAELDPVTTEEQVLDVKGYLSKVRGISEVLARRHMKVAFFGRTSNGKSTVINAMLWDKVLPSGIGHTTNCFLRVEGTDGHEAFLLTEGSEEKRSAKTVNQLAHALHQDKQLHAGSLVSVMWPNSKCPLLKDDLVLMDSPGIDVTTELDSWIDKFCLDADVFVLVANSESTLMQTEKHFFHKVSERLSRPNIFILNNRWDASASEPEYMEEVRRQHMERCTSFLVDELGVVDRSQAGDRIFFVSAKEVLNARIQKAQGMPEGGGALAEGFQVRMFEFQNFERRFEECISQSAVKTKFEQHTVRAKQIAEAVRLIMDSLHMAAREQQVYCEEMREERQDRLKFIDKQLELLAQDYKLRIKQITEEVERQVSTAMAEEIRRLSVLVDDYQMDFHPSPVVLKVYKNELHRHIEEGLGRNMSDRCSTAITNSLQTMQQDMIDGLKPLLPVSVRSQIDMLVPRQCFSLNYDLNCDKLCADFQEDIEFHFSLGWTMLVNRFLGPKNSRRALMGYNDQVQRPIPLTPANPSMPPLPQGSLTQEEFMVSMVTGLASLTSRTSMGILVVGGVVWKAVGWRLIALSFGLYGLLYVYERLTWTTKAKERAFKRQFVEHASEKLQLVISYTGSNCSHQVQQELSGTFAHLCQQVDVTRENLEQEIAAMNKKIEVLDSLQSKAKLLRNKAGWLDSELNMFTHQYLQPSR


Columns and labels:
[1] = target: T1, Mitofusin 2 (MFN2) (human (endogenous in fibroblasts)); experiment: proximity ligation; Duolink in situ PLA on fixed, methanol-permeabilised human fibroblasts, endogenous proteins; control compared with patients' fibroblasts, also after GDAP1-Myc transfection or GSH-MEE treatment
[2] = target: Peroxin 14 (PEX14) (human (endogenous in fibroblasts)) (UniProt O75381); experiment: as above
[3] = target: Peroxin 14 (PEX14) (human (endogenous in fibroblasts)) (UniProt O75381); experiment: co-IP; 1 mg lysate of control fibroblasts (1% Triton X-100 lysis buffer) with the specific antibody 6-8 h at 4°C, Protein G Sepharose overnight, western blot; endogenous proteins
[4] = target: Peroxin 14 (PEX14) (mouse (endogenous in embryonic motor neurons)) (UniProt Q9R0A0); experiment: proximity ligation; Duolink in situ PLA on fixed, permeabilised (0.4% Triton X-100) cultured mouse embryonic motor neurons, endogenous proteins; wild-type compared with Gdap1-/-

binding [1] | binding [2] | binding [3] | binding [4] | Binder
binds | binds | binds |  | Ganglioside-induced differentiation-associated protein 1 (GDAP1) (protein, UniProt Q8TB36 1-358) MAERQEEQRGSPPLRAEGKADAEVKLILYHWTHSFSSQKVRLVIAEKALKCEEHDVSLPLSEHNEPWFMRLNSTGEVPVLIHGENIICEATQIIDYLEQTFLDERTPRLMPDKESMYYPRVQHYRELLDSLPMDAYTHGCILHPELTVDSMIPAYATTRIRSQIGNTESELKKLAEENPDLQEAYIAKQKRLKSKLLDHDNVKYLKKILDELEKVLDQVETELQRRNEETPEEGQQPWLCGESFTLADVSLAVTLHRLKFLGFARRNWGNGKRPNLETYYERVLKRKTFNKVLGHVNNILISAVLPTAFRVAKKRAPKVLGTTLVVGLLAGVGYFAFMLFRKRLGSMILAFRPRPNYF
 |  |  | binds | Ganglioside-induced differentiation-associated protein 1 (GDAP1) (protein, UniProt O88741 1-358) MARRQDEARAGVPLRVEGPPDKEVHLILYHWTHSFSSQKVRLVIAEKALKCEEHDVSLPLSEHNEPWFMRLNSAGEVPVLVHGENIICEATQIIDYLEQTFLDERTPRLMPDEGSMYYPRVQHYRELLDSLPMDAYTHGCILHPELTVDSMIPAYATTRIRSQIGNTESELKKLAEENPDLQEAYIAKQKRLKSKLLDHDNVKYLKKILDELEKVLDQVETELQRRNEETPEEGNQPWLCGESFTLADVSLAVTLHRLKFLGFARRNWGHGKRPNLETYYERVLKRKTFNKVLGHVNNILISAVLPTAFRVAKKRAPKVLGSTLVVGLLVGMGYFAFMLFRRRLGSMILALRPRPNYF
